Measurements from patent US12187722B2, “Small molecule inhibitors of TEAD transcription factors” (The General Hospital Corporation, priority 2019, dated 2025).
The structures given here were assigned with low confidence; some may be wrong.

By UniProt entry, the sequences of proteins in these tests, tags left out.
UniProt Q15562, whole entry: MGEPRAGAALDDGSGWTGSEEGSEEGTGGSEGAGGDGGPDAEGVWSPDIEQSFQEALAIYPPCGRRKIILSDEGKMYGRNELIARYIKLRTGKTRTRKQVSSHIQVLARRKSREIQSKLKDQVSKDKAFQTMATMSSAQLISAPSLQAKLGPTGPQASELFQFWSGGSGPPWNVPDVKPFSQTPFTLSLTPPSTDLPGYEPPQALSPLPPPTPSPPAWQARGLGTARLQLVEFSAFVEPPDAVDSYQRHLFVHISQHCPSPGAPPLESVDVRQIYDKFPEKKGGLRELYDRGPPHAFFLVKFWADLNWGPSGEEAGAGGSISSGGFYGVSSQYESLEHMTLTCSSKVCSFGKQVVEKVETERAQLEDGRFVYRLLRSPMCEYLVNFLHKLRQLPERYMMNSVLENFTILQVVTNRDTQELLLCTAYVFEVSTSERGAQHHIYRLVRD

Key:
TEAD2 [1] = molecular target: T1, TEAD2 (Homo sapiens (Human), UniProt Q15562); test: CMP assay (CPM fluorescence detection of free CoA); conditions: read-out: TEAD2 palmitoylation IC50; Table 3; unit inferred
Experimental: 7-Diethylamino-3-(4′-Maleimidylphenyl)-4-Methylcoumarin (CPM), which reacts with thiol of CoA liberated in the enzymatic reaction, and gives fluorescent signal (excitation ˜350-380, emission-460-480). The assay detects the product (free CoA) which is produced from palmitoyl-CoA as a method to detect the enzymatic activity. Test compounds that inhibit TEAD activity are therefore able to block the CMP fluorescent signal.
TEAD2/4 protein (10 μL of a 50 ng/μL solution) and a solution the test compound (0.5 μL, variable concentration) were pre-incubated for 30 min at r.t. A mixture prepared from MES pH 6.4 buffer (6.5 μL of a 50 mM solution), EDTA (1 μL of a 20 mM solution), palmitoyl-CoA (1 μL of a 20 μM solution), and 7-diethylamino-3-(4′-maleimidylphenyl)-4-methylcoumarin (1 μL of a 10 μM solution) was added and the resulting mixture was mixed well using a pipette. The solution was then incubated at r.t. for 30-120 min. in the dark, and fluorescence was detected at […] every 30 min. until the fluorescence signal is saturated. An IC50 for the ability of the compound to inhibit fluorescence is calculated from the results.

TEAD2 [2] = molecular target: T1, TEAD2; test: In vitro palmitoylation (TEAD2 autopalmitoylation, streptavidin blot); conditions: compound at 10 μM; Table 3
Experimental: Recombinant GST-TEAD2 or His6TEAD2 (500 ng) protein was pre-incubated with the compounds at indicated concentrations for 15 min. and then incubated with 1 μM of alkyne palmitoyl-5 CoA (Cayman Chemical) for 30 min or 50 mM MES, pH 6.4, followed by Click reaction with biotin-azide as previously described (Zheng, B. et al., J. Am. Chem. Soc., 2013, 135, 7082-7085). Click reaction was performed with 100 μM biotin-azide, 1 mM tris(2-carboxyethyl) phosphine hydrochloride (TCEP), 100 μM tris[(1-benzyl-1H-1,2,3-triazol-4-yl) methyl] amine (TBTA) and 1 mM CuSO4 for 1 h at RT.
The reactions were terminated by the addition of 12 μL of 6×SDS-sample loading buffer (50 mM Tris-HCl, pH 6.8, 6% SDS, 48% Glycerol, 0.03% Bromophenol Blue, 30 mM EDTA, 9% MeSH). Samples were analysed by SDS-PAGE and Western blot was performed by probing with streptavidin HRP and histidine HRP antibodies independently. Bands intensity obtained from streptavidin blot were quantified using BIORAD, Gel doc system and the percentage of inhibition of Tead2 auto palmitoylation is determined by comparing to the DMSO control treated samples.
These compounds were tested for activity in inhibiting TEAD2 palmitoylation in the assay described above.

IC50 (TEAD2 [1]): 790 nM | % of inhibition of TEAD2 palmitoylation at 10 μM (TEAD2 [2]): 96%
Compound: COc1ccc(Nc2ccc(Oc3ccc(C4CCCCC4)cc3Cl)cc2)c(C(=O)O)c1
